Here are results for 10 molecules from patent publication US8293489B2, “Methods for detection of biological substances” (priority 2007, dated 2012).

This series can be described thus: 96 plate colorimetric ELISA comparison of biological substances in various bodily fluids. Further details: species or system human. (ELISA stands for enzyme-linked immunosorbent assay.)

B1: L Selectin (protein, UniProt P14151 39-372, looked up)
L-selectin: WTYHYSEKPMNWQRARRFCRDNYTDLVAIQNKAEIEYLEKTLPFSRSYYWIGIRKIGGIWTWVGTNKSLTEEAENWGDGEPNNKKNKEDCVEIYIKRNKDAGKWNDDACHKLKAALCYTASCQPWSCSGHGECVEIINNYTCNCDVGYYGPQCQFVIQCEPLEAPELGTMDCTHPLGNFSFSSQCAFSCSEGTNLTGIEETTCGPFGNWSSPEPTCQVIQCEPLSAPDLGIMNCSHPLASFSFTSACTFICSEGTELIGKKKTICESSGIWSNPSPICQKLDKSFSMIKEGDYNPLFIPVAVMVTAFSGLAFIIWLARRLKKGKKSKRSMNDPY
In the case of B1, the “concentration in NASAL MUCUS” value was 25.35 ± 3.15 ng/mL, the “concentration in PLASMA” value came to 20.1 ± 1.4 ng/mL, the “concentration in SALIVA” value worked out at 0 ng/mL and the “concentration in URINE” value was 0 pg/mL.

B2: Intercellular Adhesion Molecule 1 (ICAM-1) (protein, UniProt P05362 28-532, looked up)
Intercellular adhesion …: QTSVSPSKVILPRGGSVLVTCSTSCDQPKLLGIETPLPKKELLLPGNNRKVYELSNVQEDSQPMCYSNCPDGQSTAKTFLTVYWTPERVELAPLPSWQPVGKNLTLRCQVEGGAPRANLTVVLLRGEKELKREPAVGEPAEVTTTVLVRRDHHGANFSCRTELDLRPQGLELFENTSAPYQLQTFVLPATPPQLVSPRVLEVDTQGTVVCSLDGLFPVSEAQVHLALGDQRLNPTVTYGNDSFSAKASVSVTAEDEGTQRLTCAVILGNQSQETLQTVTIYSFPAPNVILTKPEVSEGTEVTVKCEAHPRAKVTLNGVPAQPLGPRAQLLLKATPEDNGRSFSCSATLEVAGQLIHKNQTRELRVLYGPRLDERDCPGNWTWPENSQQTPMCQAWGNPLPELKCLKDGTFPLPIGESVTVTRDLEGTYLCRARSTQGEVTRKVTVNVLSPRYEIVIITVVAAAVIMGTAGLSTYLYNRQRKIKKYRLQQAQKGTPMKPNTQATPP
With B2, the “concentration in NASAL MUCUS” value was 34 ± 4 ng/mL, the “concentration in PLASMA” value was found to be 126 ± 8 ng/mL and the “concentration in SALIVA” value was 19 ± 1 ng/mL.

B3: Vascular Endothelial Growth Factor - Receptor 1 (VEGF-R1) (protein, UniProt P17948 27-1338, looked up)
Vascular endothelial growth …: SKLKDPELSLKGTQHIMQAGQTLHLQCRGEAAHKWSLPEMVSKESERLSITKSACGRNGKQFCSTLTLNTAQANHTGFYSCKYLAVPTSKKKETESAIYIFISDTGRPFVEMYSEIPEIIHMTEGRELVIPCRVTSPNITVTLKKFPLDTLIPDGKRIIWDSRKGFIISNATYKEIGLLTCEATVNGHLYKTNYLTHRQTNTIIDVQISTPRPVKLLRGHTLVLNCTATTPLNTRVQMTWSYPDEKNKRASVRRRIDQSNSHANIFYSVLTIDKMQNKDKGLYTCRVRSGPSFKSVNTSVHIYDKAFITVKHRKQQVLETVAGKRSYRLSMKVKAFPSPEVVWLKDGLPATEKSARYLTRGYSLIIKDVTEEDAGNYTILLSIKQSNVFKNLTATLIVNVKPQIYEKAVSSFPDPALYPLGSRQILTCTAYGIPQPTIKWFWHPCNHNHSEARCDFCSNNEESFILDADSNMGNRIESITQRMAIIEGKNKMASTLVVADSRISGIYICIASNKVGTVGRNISFYITDVPNGFHVNLEKMPTEGEDLKLSCTVNKFLYRDVTWILLRTVNNRTMHYSISKQKMAITKEHSITLNLTIMNVSLQDSGTYACRARNVYTGEEILQKKEITIRDQEAPYLLRNLSDHTVAISSSTTLDCHANGVPEPQITWFKNNHKIQQEPGIILGPGSSTLFIERVTEEDEGVYHCKATNQKGSVESSAYLTVQGTSDKSNLELITLTCTCVAATLFWLLLTLFIRKMKRSSSEIKTDYLSIIMDPDEVPLDEQCERLPYDASKWEFARERLKLGKSLGRGAFGKVVQASAFGIKKSPTCRTVAVKMLKEGATASEYKALMTELKILTHIGHHLNVVNLLGACTKQGGPLMVIVEYCKYGNLSNYLKSKRDLFFLNKDAALHMEPKKEKMEPGLEQGKKPRLDSVTSSESFASSGFQEDKSLSDVEEEEDSDGFYKEPITMEDLISYSFQVARGMEFLSSRKCIHRDLAARNILLSENNVVKICDFGLARDIYKNPDYVRKGDTRLPLKWMAPESIFDKIYSTKSDVWSYGVLLWEIFSLGGSPYPGVQMDEDFCSRLREGMRMRAPEYSTPEIYQIMLDCWHRDPKERPRFAELVEKLGDLLQANVQQDGKDYIPINAILTGNSGFTYSTPAFSEDFFKESISAPKFNSGSSDDVRYVNAFKFMSLERIKTFEELLPNATSMFDDYQGDSSTLLASPMLKRFTWTDSKPKASLKIDLRVTSKSKESGLSDVSRPSFCHSSCGHVSEGKRRFTYDHAELERKIACCSPPPDYNSVVLYSTPPI
Take B3: the “concentration in NASAL MUCUS” value was 1.532 ± 0.445 ng/mL, the “concentration in PLASMA” value is 0.378 ± 0.037 ng/mL, the “concentration in SALIVA” value worked out at 0.492 ± 0.063 ng/mL and the “concentration in URINE” value is 317 ± 39 pg/mL.

B4: E Selectin (protein, UniProt P16581 22-610, looked up)
E-selectin: WSYNTSTEAMTYDEASAYCQQRYTHLVAIQNKEEIEYLNSILSYSPSYYWIGIRKVNNVWVWVGTQKPLTEEAKNWAPGEPNNRQKDEDCVEIYIKREKDVGMWNDERCSKKKLALCYTAACTNTSCSGHGECVETINNYTCKCDPGFSGLKCEQIVNCTALESPEHGSLVCSHPLGNFSYNSSCSISCDRGYLPSSMETMQCMSSGEWSAPIPACNVVECDAVTNPANGFVECFQNPGSFPWNTTCTFDCEEGFELMGAQSLQCTSSGNWDNEKPTCKAVTCRAVRQPQNGSVRCSHSPAGEFTFKSSCNFTCEEGFMLQGPAQVECTTQGQWTQQIPVCEAFQCTALSNPERGYMNCLPSASGSFRYGSSCEFSCEQGFVLKGSKRLQCGPTGEWDNEKPTCEAVRCDAVHQPPKGLVRCAHSPIGEFTYKSSCAFSCEEGFELHGSTQLECTSQGQWTEEVPSCQVVKCSSLAVPGKINMSCSGEPVFGTVCKFACPEGWTLNGSAARTCGATGHWSGLLPTCEAPTESNIPLVAGLSAAGLSLLTLAPFLLWLRKCLRKAKKFVPASSCQSLESDGSYQKPSYIL
As to B4, the “concentration in NASAL MUCUS” value worked out at 0.58 ± 0.49 ng/mL, the “concentration in PLASMA” value stood at 20.0 ± 4.5 ng/mL, the “concentration in SALIVA” value was determined as 0 ng/mL and the “concentration in URINE” value came to 0 pg/mL.

B5: Endoglin (protein, UniProt P17813 26-658, looked up)
Endoglin: ETVHCDLQPVGPERGEVTYTTSQVSKGCVAQAPNAILEVHVLFLEFPTGPSQLELTLQASKQNGTWPREVLLVLSVNSSVFLHLQALGIPLHLAYNSSLVTFQEPPGVNTTELPSFPKTQILEWAAERGPITSAAELNDPQSILLRLGQAQGSLSFCMLEASQDMGRTLEWRPRTPALVRGCHLEGVAGHKEAHILRVLPGHSAGPRTVTVKVELSCAPGDLDAVLILQGPPYVSWLIDANHNMQIWTTGEYSFKIFPEKNIRGFKLPDTPQGLLGEARMLNASIVASFVELPLASIVSLHASSCGGRLQTSPAPIQTTPPKDTCSPELLMSLIQTKCADDAMTLVLKKELVAHLKCTITGLTFWDPSCEAEDRGDKFVLRSAYSSCGMQVSASMISNEAVVNILSSSSPQRKKVHCLNMDSLSFQLGLYLSPHFLQASNTIEPGQQSFVQVRVSPSVSEFLLQLDSCHLDLGPEGGTVELIQGRAAKGNCVSLLSPSPEGDPRFSFLLHFYTVPIPKTGTLSCTVALRPKTGSQDQEVHRTVFMRLNIISPDLSGCTSKGLVLPAVLGITFGAFLIGALLTAALWYIYSHTRSPSKREPVVAVAAPASSESSSTNHSIGSTQSTPCSTSSMA
For the molecule B5, the “concentration in NASAL MUCUS” value worked out at 0.02 ± 0.06 ng/mL, the “concentration in PLASMA” value was found to be 27 ± 0.1 ng/mL, the “concentration in SALIVA” value amounted to 0 ng/mL and the “concentration in URINE” value is 0 pg/mL.

B6: Endostatin (protein, UniProt P39060 1572-1754, looked up)
Endostatin: HSHRDFQPVLHLVALNSPLSGGMRGIRGADFQCFQQARAVGLAGTFRAFLSSRLQDLYSIVRRADRAAVPIVNLKDELLFPSWEALFSGSEGPLKPGARIFSFDGKDVLRHPTWPQKSVWHGSDPNGRRLTESYCETWRTEAPSATGQASSLLGGRLLGQSAASCHHAYIVLCIENSFMTASK
modifications: Endostatin
Regarding B6, the “concentration in NASAL MUCUS” value stood at 6.0 ± 1.3 ng/mL, the “concentration in PLASMA” value came to 102 ± 9 ng/mL, the “concentration in SALIVA” value was 1.3 ± 0.3 ng/mL and the “concentration in URINE” value stood at 400 ± 20 pg/mL.

B7: Ciliary Neurotrophic Factor (CNF) (protein, UniProt P26441 1-200, looked up)
Ciliary neurotrophic factor: MAFTEHSPLTPHRRDLCSRSIWLARKIRSDLTALTESYVKHQGLNKNINLDSADGMPVASTDQWSELTEAERLQENLQAYRTFHVLLARLLEDQQVHFTPTEGDFHQAIHTLLLQVAAFAYQIEELMILLEYKIPRNEADGMPINVGDGGLFEKKLWGLKVLQELSQWTVRSIHDLRFISSHQTGIPARGSHYIANNKKM
B7: the “concentration in NASAL MUCUS” value stood at 0 ng/mL, the “concentration in PLASMA” value came out at 0 ng/mL, the “concentration in SALIVA” value stood at 0 ng/mL and the “concentration in URINE” value is 0 pg/mL.

B8: Keratinocyte Growth Factor (KGF) (protein, UniProt P21781 32-194, looked up)
Fibroblast growth factor 7: CNDMTPEQMATNVNCSSPERHTRSYDYMEGGDIRVRRLFCRTQWYLRIDKRGKVKGTQEMKNNYNIMEIRTVAVGIVAIKGVESEFYLAMNKEGKLYAKKECNEDCNFKELILENHYNTYASAKWTHNGGEMFVALNQKGIPVRGKKTKKEQKTAHFLPMAIT
For the molecule B8, the “concentration in NASAL MUCUS” value was found to be 0.0152 ± 0.0029 ng/mL, the “concentration in PLASMA” value was found to be 0.0028 ± 0.0028 ng/mL, the “concentration in SALIVA” value stood at 0 ng/mL and the “concentration in URINE” value came to 0 pg/mL.

B9: Vascular Endothelial Growth Factor D (VEGF-D) (protein, UniProt O43915 89-205, looked up)
Vascular endothelial growth …: FAATFYDIETLKVIDEEWQRTQCSPRETCVEVASELGKSTNTFFKPPCVNVFRCGGCCNEESLICMNTSTSYISKQLFEISVPLTSVPELVPVKVANHTGCKCLPTAPRHPYSIIRR
B9: the “concentration in NASAL MUCUS” value was 0.0292 ± 0.0082 ng/mL, the “concentration in PLASMA” value turned out to be 0.469 ± 0.0574 ng/mL, the “concentration in SALIVA” value turned out to be 0.0065 ± 0.0055 ng/mL and the “concentration in URINE” value was 11.7 ± 7.9 pg/mL.

B10: Macrophage Inhibitory Factor (MIF) (protein, UniProt P14174 2-115, looked up)
Macrophage migration …: PMFIVNTNVPRASVPDGFLSELTQQLAQATGKPPQYIAVHVVPDQLMAFGGSSEPCALCSLHSIGKIGGAQNRSYSKLLCGLLAERLRISPDRVYINYYDMNAANVGWNNSTFA
Take B10: the “concentration in NASAL MUCUS” value came out at 0.135 ± 0.027 ng/mL, the “concentration in PLASMA” value turned out to be 0.0028 ± 0.0002 ng/mL, the “concentration in SALIVA” value was determined as 0 ng/mL and the “concentration in URINE” value came out at 0 pg/mL.
